Measured values: paper PMC9631063, “Schisandrin B Attenuates Diabetic Cardiomyopathy by Targeting MyD88 and Inhibiting MyD88‐Dependent Inflammation” (Advanced Science, 2022)
These are yes or no findings as the source states them, for the method shown. Binding seen in cells or lysates may run through a third protein. Some results given as binding are weak or reduced against the parent protein; the word gives no strength.

Chains of the proteins cited; added tags and fusions are not shown. Residues count along the entry.
UniProt Q9QUK6, residues 26-835: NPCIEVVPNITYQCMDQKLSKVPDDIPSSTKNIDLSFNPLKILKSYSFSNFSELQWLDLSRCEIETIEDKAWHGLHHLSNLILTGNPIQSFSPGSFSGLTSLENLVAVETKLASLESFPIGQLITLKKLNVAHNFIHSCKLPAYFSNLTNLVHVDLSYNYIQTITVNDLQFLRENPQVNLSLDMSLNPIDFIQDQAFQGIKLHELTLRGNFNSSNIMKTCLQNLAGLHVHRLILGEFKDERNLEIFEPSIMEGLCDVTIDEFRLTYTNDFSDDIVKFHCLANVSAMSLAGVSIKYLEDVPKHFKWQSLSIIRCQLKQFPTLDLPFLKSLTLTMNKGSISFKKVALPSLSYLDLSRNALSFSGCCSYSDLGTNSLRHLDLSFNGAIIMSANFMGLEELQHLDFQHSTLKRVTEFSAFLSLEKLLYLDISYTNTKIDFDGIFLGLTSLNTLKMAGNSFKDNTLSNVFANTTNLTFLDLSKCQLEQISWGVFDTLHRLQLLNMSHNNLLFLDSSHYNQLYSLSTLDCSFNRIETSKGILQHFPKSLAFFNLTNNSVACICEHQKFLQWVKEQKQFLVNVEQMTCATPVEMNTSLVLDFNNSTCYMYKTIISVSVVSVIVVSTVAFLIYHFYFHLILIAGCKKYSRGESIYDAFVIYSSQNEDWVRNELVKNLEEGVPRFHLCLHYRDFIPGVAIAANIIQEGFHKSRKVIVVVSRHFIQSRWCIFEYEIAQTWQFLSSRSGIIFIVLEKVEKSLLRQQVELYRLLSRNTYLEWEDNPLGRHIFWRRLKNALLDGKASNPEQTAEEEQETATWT
UniProt P22366: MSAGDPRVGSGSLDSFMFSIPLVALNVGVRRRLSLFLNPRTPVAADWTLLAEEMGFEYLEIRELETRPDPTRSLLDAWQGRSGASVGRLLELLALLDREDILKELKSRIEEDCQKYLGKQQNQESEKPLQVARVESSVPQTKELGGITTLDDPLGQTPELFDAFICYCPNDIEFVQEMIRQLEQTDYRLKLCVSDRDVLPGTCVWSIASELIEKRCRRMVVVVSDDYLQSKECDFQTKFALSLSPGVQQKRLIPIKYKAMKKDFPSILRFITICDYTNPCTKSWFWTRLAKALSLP
UniProt Q6Y1S1: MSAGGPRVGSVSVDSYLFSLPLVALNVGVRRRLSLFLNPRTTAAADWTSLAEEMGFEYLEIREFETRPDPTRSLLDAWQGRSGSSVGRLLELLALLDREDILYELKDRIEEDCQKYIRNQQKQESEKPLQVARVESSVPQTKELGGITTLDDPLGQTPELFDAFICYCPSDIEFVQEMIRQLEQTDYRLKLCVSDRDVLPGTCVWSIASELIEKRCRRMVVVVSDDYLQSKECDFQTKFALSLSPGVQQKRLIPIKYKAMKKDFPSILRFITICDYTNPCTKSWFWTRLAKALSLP

T1: Toll‐like receptor 4 (rat, endogenous) (rat (endogenous in H9C2 and rat primary cardiomyocytes)) (UniProt Q9QX05)
T1 sequence: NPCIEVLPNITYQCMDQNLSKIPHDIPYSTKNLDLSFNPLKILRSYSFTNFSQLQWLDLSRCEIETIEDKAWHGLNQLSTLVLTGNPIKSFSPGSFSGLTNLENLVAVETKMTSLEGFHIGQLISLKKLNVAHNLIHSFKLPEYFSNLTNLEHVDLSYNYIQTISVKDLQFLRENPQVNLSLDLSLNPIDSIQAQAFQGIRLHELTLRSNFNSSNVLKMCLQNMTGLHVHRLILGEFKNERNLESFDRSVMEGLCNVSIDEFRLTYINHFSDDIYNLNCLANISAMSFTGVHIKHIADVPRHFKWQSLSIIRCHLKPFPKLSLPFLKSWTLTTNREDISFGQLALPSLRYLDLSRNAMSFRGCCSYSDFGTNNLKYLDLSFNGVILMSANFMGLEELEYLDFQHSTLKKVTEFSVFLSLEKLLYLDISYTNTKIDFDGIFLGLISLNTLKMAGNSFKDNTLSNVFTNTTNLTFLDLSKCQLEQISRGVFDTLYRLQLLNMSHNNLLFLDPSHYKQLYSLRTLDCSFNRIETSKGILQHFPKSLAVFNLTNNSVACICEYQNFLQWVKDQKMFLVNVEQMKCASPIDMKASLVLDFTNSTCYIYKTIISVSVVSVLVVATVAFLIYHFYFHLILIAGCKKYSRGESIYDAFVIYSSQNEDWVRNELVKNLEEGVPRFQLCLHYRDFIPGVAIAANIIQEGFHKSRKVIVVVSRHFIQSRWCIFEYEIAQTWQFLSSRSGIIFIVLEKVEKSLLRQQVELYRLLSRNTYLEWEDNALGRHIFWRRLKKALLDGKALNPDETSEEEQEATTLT

B1: TIR‐domain‐containing adapter‐inducing interferon‐β (mouse, endogenous) (protein, UniProt Q80UF7 1-732)
chain: MDNPGPSLRGAFGILGALERDRLTHLKHKLGSLCSGSQESKLLHAMVLLALGQDTEARVSLESLKMNTVAQLVAHQWADMETTEGPEEPPDLSWTVARLYHLLAEENLCPASTRDMAYQVALRDFASQGDHQLGQLQNEAWDRCSSDIKGDPSGFQPLHSHQGSLQPPSASPAVTRSQPRPIDTPDWSWGHTLHSTNSTASLASHLEISQSPTLAFLSSHHGTHGPSKLCNTPLDTQEPQLVPEGCQEPEEISWPPSVETSVSLGLPHEISVPEVSPEEASPILPDALAAPDTSVHCPIECTELSTNSRSPLTSTTESVGKQWPITSQRSPQVPVGDDSLQNTTSSSPPAQPPSLQASPKLPPSPLSSASSPSSYPAPPTSTSPVLDHSETSDQKFYNFVVIHARADEQVALRIREKLETLGVPDGATFCEEFQVPGRGELHCLQDAIDHSGFTILLLTASFDCSLSLHQINHALMNSLTQSGRQDCVIPLLPLECSQAQLSPDTTRLLHSIVWLDEHSPIFARKVANTFKTQKLQAQRVRWKKAQEARTLKEQSIQLEAERQNVAAISAAYTAYVHSYRAWQAEMNKLGVAFGKNLSLGTPTPSWPGCPQPIPSHPQGGTPVFPYSPQPPSFPQPPCFPQPPSFPQPPSFPLPPVSSPQSQSFPSASSPAPQTPGPQPLIIHHAQMVQLGVNNHMWGHTGAQSSDDKTECSENPCMGPLTDQGEPLLETPE
B2: myeloid differentiation factor 2 (mouse, endogenous) (protein, UniProt Q9JHF9 19-160)
chain: EKQQWFCNSSDAIISYSYCDHLKFPISISSEPCIRLRGTNGFVHVEFIPRGNLKYLYFNLFISVNSIELPKRKEVLCHGHDDDYSFCRALKGETVNTSIPFSFEGILFPKGHYRCVAEAIAGDTEEKLFCLNFTIIHRRDVN

Experiments:
[1] = target: Toll‐like receptor 4 (mouse, endogenous) (mouse (endogenous in heart tissue)) (UniProt Q9QUK6); test: co-IP; heart tissue lysates of db/m and db/db mice (vehicle or Sch B 20 or 40 mg/kg for 8 weeks); TLR4 immunoprecipitated, MD2, TRIF and MyD88 blotted
[2] = target: Toll‐like receptor 4 (mouse, endogenous) (mouse (endogenous in heart tissue)) (UniProt Q9QUK6); test: co-IP; heart tissue lysates of control and STZ-induced type 1 diabetic C57BL/6 mice; TLR4 immunoprecipitated, MD2, TRIF and MyD88 blotted
[3] = target: T1, Toll‐like receptor 4 (rat, endogenous) (rat (endogenous in H9C2 and rat primary cardiomyocytes)); test: co-IP; lysates of H9C2 cells (control, HG 33 mM glucose 30 min, with or without 10 uM Sch B pretreatment 1 h); TLR4 immunoprecipitated and TRIF, MyD88 blotted; MD2 immunoprecipitated and TLR4 blotted; TLR2-MyD88 co-IP (Figure S5); protein G-Sepharose
[4] = target: T1, Toll‐like receptor 4 (rat, endogenous) (rat (endogenous in H9C2 and rat primary cardiomyocytes)); test: co-IP; lysates of rat primary cardiomyocytes (control, HG 30 min, with or without 10 uM Sch B pretreatment 1 h); MD2/TLR4, TLR4/TRIF and TLR4/MyD88 complexes; protein G-Sepharose

| Molecule | binding [1] | binding [2] | binding [3] | binding [4] |
| --- | --- | --- | --- | --- |
| myeloid differentiation primary response 88 (mouse, endogenous) (from UniProt P22366 1-296) | binds | binds |  |  |
| myeloid differentiation primary response 88 (rat, endogenous) (from UniProt Q6Y1S1 1-296) |  |  | binds | binds |
| B1 | binds | binds |  |  |
| B2 | binds | binds |  |  |
